Taken from: PubChem BioAssay AID1259308 (NCATS, 2017)

Aim: 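Genes whose loss raises luciferase production in HEK293 cells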 (primary screen)
Cells: human HEK293 embryonic kidney cells stably expressing firefly luciferase (HEK-CMV-Luc2-Hygro)
Knock-down reagent: single siRNA against human genes, 0.8 pmol siRNA per well
Timing: 72 h
Measurement: 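Luciferase light (ONE-Glo) measured on one replicate plate set and viability (CellTiter-Glo) on the other, scaled to a negative control siRNA, with robust z-scores and luciferase per cell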
Reading the numbers: total luciferase, z-score and total luciferase, % of control: higher = more reporter protein produced; luciferase per cell, z-score: higher = more reporter output per viable cell; viable cells, % of control: higher = more viable cells
Call rule: 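An siRNA counts as active if its total luciferase robust z-score exceeds 3; genes with two or more such siRNAs out of three were retested with fresh siRNAs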
Calls: active = raised luciferase; inactive = no rise
In all, the deposit lists about 59,000 reagents; shown is a random part of them. About 1,510 of them (2.6%) count as active. 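Calls use total luciferase alone and ignore viability, so some active siRNAs may act by altering cell number.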 Unmarked entries are inactive. The numbers tell different reagents against one gene apart. No sequences are given here.

Target gene	siRNA no.	total luciferase, z-score	total luciferase, % of control	luciferase per cell, z-score	viable cells, % of control
VSX2 (visual system homeobox 2)	1	-0.0897	80.1	0.751	73.5
VSX2 (visual system homeobox 2)	2	2.18	125	2.3	76.4
VSX2 (visual system homeobox 2)	3	-0.562	70.7	0.348	72.1
PHAX (phosphorylated adaptor for RNA export)	1	-0.436	73.2	-0.349	89.7
PHAX (phosphorylated adaptor for RNA export)	2	-0.921	63.6	-0.819	88.1
PHAX (phosphorylated adaptor for RNA export)	3	-0.537	71.2	-0.776	97.6
C19orf38 (chromosome 19 open reading frame 38)	1	-0.855	64.9	-0.687	86.9
C19orf38 (chromosome 19 open reading frame 38)	2	3.5 (active)	152	2.79	81.2
C19orf38 (chromosome 19 open reading frame 38)	3	0.349	88.8	-0.375	110
TMEM151A (transmembrane protein 151A)	1	-1.08	60.5	0.0688	66.3
TMEM151A (transmembrane protein 151A)	2	-0.149	78.9	-0.219	93.4
TMEM151A (transmembrane protein 151A)	3	0.236	86.6	0.183	92.2
LRCH2	1	0.165	85.2	-0.457	107
LRCH2	2	-0.316	75.6	-0.903	107
LRCH2	3	0.105	84	-0.393	104
RNF34 (ring finger protein 34)	1	0.111	84.1	-0.109	96.7
RNF34 (ring finger protein 34)	2	1.62	114	1.37	88.9
RNF34 (ring finger protein 34)	3	0.307	88	-0.408	109
TANGO2 (transport and golgi organization 2 homolog)	1	-1.17	58.6	-0.233	69.6
TANGO2 (transport and golgi organization 2 homolog)	2	-0.246	77	0.364	78.2
TANGO2 (transport and golgi organization 2 homolog)	3	-0.691	68.1	-0.791	93.8
RPLP1P7 (ribosomal protein lateral stalk subunit P1 pseudogene 7)	1	-1.34	55.2	-0.605	72.4
RPLP1P7 (ribosomal protein lateral stalk subunit P1 pseudogene 7)	2	-1.33	55.5	1.2	45.3
RPLP1P7 (ribosomal protein lateral stalk subunit P1 pseudogene 7)	3	-0.966	62.7	-0.889	88.5

Laid out differently: 5 of the entries above.
RNF34 (ring finger protein 34) #3
- total luciferase, z-score: 0.307
- total luciferase, % of control: 88
- luciferase per cell, z-score: -0.408
- viable cells, % of control: 109

TANGO2 (transport and golgi organization 2 homolog) #1
- total luciferase, z-score: -1.17
- total luciferase, % of control: 58.6
- luciferase per cell, z-score: -0.233
- viable cells, % of control: 69.6

TANGO2 (transport and golgi organization 2 homolog) #2
- total luciferase, z-score: -0.246
- total luciferase, % of control: 77
- luciferase per cell, z-score: 0.364
- viable cells, % of control: 78.2

TANGO2 (transport and golgi organization 2 homolog) #3
- total luciferase, z-score: -0.691
- total luciferase, % of control: 68.1
- luciferase per cell, z-score: -0.791
- viable cells, % of control: 93.8

RPLP1P7 (ribosomal protein lateral stalk subunit P1 pseudogene 7) #1
- total luciferase, z-score: -1.34
- total luciferase, % of control: 55.2
- luciferase per cell, z-score: -0.605
- viable cells, % of control: 72.4

Further results:
Target gene	siRNA no.	total luciferase, z-score	total luciferase, % of control	luciferase per cell, z-score	viable cells, % of control
DVL2 (dishevelled segment polarity protein 2)	1	-1.36	54.9	-1.85	99.9
DVL2 (dishevelled segment polarity protein 2)	2	-0.146	79	-0.537	102
DVL2 (dishevelled segment polarity protein 2)	3	-1.72	47.7	-1.38	76.6
RRP9	1	-1.76	46.9	-1.66	81.2
RRP9	2	-0.942	63.1	-0.741	85.8
RRP9	3	-0.905	63.9	-0.123	73.7
RSPO2 (R-spondin 2)	1	0.79	97.6	1.05	82.7
RSPO2 (R-spondin 2)	2	-0.468	72.6	-0.837	101
RSPO2 (R-spondin 2)	3	-0.562	70.7	-1.75	125
TIMP4 (TIMP metallopeptidase inhibitor 4)	1	0.477	91.4	-0.41	114
TIMP4 (TIMP metallopeptidase inhibitor 4)	2	-0.962	62.7	-0.901	88.9
TIMP4 (TIMP metallopeptidase inhibitor 4)	3	-0.482	72.3	-0.167	84.4
PAGE3 (PAGE family member 3)	1	0.425	90.3	0.931	79
PAGE3 (PAGE family member 3)	2	0.835	98.5	0.62	93.5
PAGE3 (PAGE family member 3)	3	0.281	87.5	-0.261	105
